{"source": "the supplement of paper PMC8728848", "binders": {"B1": {"name": "Tp0751, 83732 (protein)", "chain": "MSYYHHHHHHLESTSLYKKAGFQHGHVPPRRIPPHDTFGALPTAALPSNARDTAAHPSDTADNTSGSSTTTDPRSHGNAPPAPVGGAAQTHTQPPVQTAMRIALWNRATHGEQGALQHLLAGLWIQTEISPNSGDIHPLLFFDREHAEITFSRASVQEIFLVDSAHTHRKTVSFLTRNTAISSIRRRLEVTFESHEVIHVRAVEDVARLKIGSTSMWDGQYTRYHAGPASAPSP"}}, "assay_in_all_cases": "glycan array binding signal (z-score within array); higher = stronger binding", "settings_in_all_cases": "glycan notation: IUPAC condensed, linker removed", "key": {"[1]": {"target": "Gal(b1-4)GlcNAc(b1-2)[Gal(b1-4)GlcNAc(b1-6)]Man(a1-6)[GlcNAc(b1-4)][Gal(b1-4)GlcNAc(b1-2)Man(a1-3)]Man(b1-4)GlcNAc(b1-4)GlcNAc", "outline": "(§1)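 Glycan array data were curated from 3228 arrays in the Consortium for Functional Glycomics database and kept only where the protein sequence was available. Glycan names were converted to IUPAC-condensed notation, and columns mapping to the same glycan were averaged. The binding signal is a within-array Z-score, averaged across arrays of the same protein sequence at different concentrations or buffers and across linkers. Negative Z-scores can be read as non-binding.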"}, "[2]": {"target": "Gal(b1-4)GlcNAc(b1-2)[Gal(b1-4)GlcNAc(b1-6)]Man(a1-6)[GlcNAc(b1-4)][Gal(b1-4)GlcNAc(b1-2)[Gal(b1-4)GlcNAc(b1-4)]Man(a1-3)]Man(b1-4)GlcNAc(b1-4)[Fuc(a1-6)]GlcNAc", "outline": "as §1"}, "[3]": {"target": "Gal(b1-4)GlcNAc(b1-3)Gal(b1-3)GalNAc", "outline": "as §1"}, "[4]": {"target": "Gal(b1-4)GlcNAc(b1-3)Gal(b1-3)GlcNAc", "outline": "as §1"}, "[5]": {"target": "Gal(b1-4)GlcNAc(b1-3)Gal(b1-4)Glc", "outline": "as §1"}, "[6]": {"target": "Gal(b1-4)GlcNAc(b1-3)Gal(b1-4)GlcNAc", "outline": "as §1"}, "[7]": {"target": "Gal(b1-4)GlcNAc(b1-3)Gal(b1-4)GlcNAc(b1-2)Man(a1-3)[Gal(b1-4)GlcNAc(b1-3)Gal(b1-4)GlcNAc(b1-2)Man(a1-6)]Man(b1-4)GlcNAc(b1-4)GlcNAc", "outline": "as §1"}, "[8]": {"target": "Gal(b1-4)GlcNAc(b1-3)Gal(b1-4)GlcNAc(b1-2)Man(a1-3)[Gal(b1-4)GlcNAc(b1-3)Gal(b1-4)GlcNAc(b1-2)Man(a1-6)]Man(b1-4)GlcNAc(b1-4)[Fuc(a1-6)]GlcNAc", "outline": "as §1"}, "[9]": {"target": "Gal(b1-4)GlcNAc(b1-3)Gal(b1-4)GlcNAc(b1-2)[Gal(b1-4)GlcNAc(b1-3)Gal(b1-4)GlcNAc(b1-6)]Man(a1-6)[Gal(b1-4)GlcNAc(b1-3)Gal(b1-4)GlcNAc(b1-2)Man(a1-3)]Man(b1-4)GlcNAc(b1-4)GlcNAc", "outline": "as §1"}, "[10]": {"target": "Gal(b1-4)GlcNAc(b1-3)Gal(b1-4)GlcNAc(b1-2)[Gal(b1-4)GlcNAc(b1-3)Gal(b1-4)GlcNAc(b1-6)]Man(a1-6)[Gal(b1-4)GlcNAc(b1-3)Gal(b1-4)GlcNAc(b1-2)Man(a1-3)]Man(b1-4)GlcNAc(b1-4)[Fuc(a1-6)]GlcNAc", "outline": "as §1"}, "[11]": {"target": "Gal(b1-4)GlcNAc(b1-3)Gal(b1-4)GlcNAc(b1-3)Gal(b1-4)GlcNAc", "outline": "as §1"}, "[12]": {"target": "Gal(b1-4)GlcNAc(b1-3)Gal(b1-4)GlcNAc(b1-3)Gal(b1-4)GlcNAc(b1-2)Man(a1-3)[Gal(b1-4)GlcNAc(b1-3)Gal(b1-4)GlcNAc(b1-3)Gal(b1-4)GlcNAc(b1-2)Man(a1-6)]Man(b1-4)GlcNAc(b1-4)GlcNAc", "outline": "as §1"}, "[13]": {"target": "Gal(b1-4)GlcNAc(b1-3)Gal(b1-4)GlcNAc(b1-3)Gal(b1-4)GlcNAc(b1-2)Man(a1-3)[Gal(b1-4)GlcNAc(b1-3)Gal(b1-4)GlcNAc(b1-3)Gal(b1-4)GlcNAc(b1-2)Man(a1-6)]Man(b1-4)GlcNAc(b1-4)[Fuc(a1-6)]GlcNAc", "outline": "as §1"}, "[14]": {"target": "Gal(b1-4)GlcNAc(b1-3)Gal(b1-4)GlcNAc(b1-3)Gal(b1-4)GlcNAc(b1-2)[Gal(b1-4)GlcNAc(b1-3)Gal(b1-4)GlcNAc(b1-3)Gal(b1-4)GlcNAc(b1-6)]Man(a1-6)[Gal(b1-4)GlcNAc(b1-3)Gal(b1-4)GlcNAc(b1-3)Gal(b1-4)GlcNAc(b1-2)Man(a1-3)]Man(b1-4)GlcNAc(b1-4)[Fuc(a1-6)]GlcNAc", "outline": "as §1"}, "[15]": {"target": "Gal(b1-4)GlcNAc(b1-3)Gal(b1-4)GlcNAc(b1-3)Gal(b1-4)GlcNAc(b1-3)Gal(b1-4)GlcNAc(b1-2)Man(a1-3)[Gal(b1-4)GlcNAc(b1-3)Gal(b1-4)GlcNAc(b1-3)Gal(b1-4)GlcNAc(b1-3)Gal(b1-4)GlcNAc(b1-2)Man(a1-6)]Man(b1-4)GlcNAc(b1-4)GlcNAc", "outline": "as §1"}, "[16]": {"target": "Gal(b1-4)GlcNAc(b1-3)Gal(b1-4)GlcNAc(b1-3)Gal(b1-4)GlcNAc(b1-3)Gal(b1-4)GlcNAc(b1-2)Man(a1-3)[Gal(b1-4)GlcNAc(b1-3)Gal(b1-4)GlcNAc(b1-3)Gal(b1-4)GlcNAc(b1-3)Gal(b1-4)GlcNAc(b1-2)Man(a1-6)]Man(b1-4)GlcNAc(b1-4)[Fuc(a1-6)]GlcNAc", "outline": "as §1"}, "[17]": {"target": "Gal(b1-4)GlcNAc(b1-3)Gal(b1-4)GlcNAc(b1-3)Gal(b1-4)GlcNAc(b1-3)Gal(b1-4)GlcNAc(b1-2)[Gal(b1-4)GlcNAc(b1-3)Gal(b1-4)GlcNAc(b1-3)Gal(b1-4)GlcNAc(b1-3)Gal(b1-4)GlcNAc(b1-6)]Man(a1-6)[Gal(b1-4)GlcNAc(b1-3)Gal(b1-4)GlcNAc(b1-3)Gal(b1-4)GlcNAc(b1-3)Gal(b1-4)GlcNAc(b1-2)Man(a1-3)]Man(b1-4)GlcNAc(b1-4)[Fuc(a1-6)]GlcNAc", "outline": "as §1"}, "[18]": {"target": "Gal(b1-4)GlcNAc(b1-3)Gal(b1-4)GlcNAc(b1-3)Gal(b1-4)GlcNAc(b1-3)Gal(b1-4)GlcNAc(b1-3)Gal(b1-4)GlcNAc(b1-2)Man(a1-3)[Gal(b1-4)GlcNAc(b1-3)Gal(b1-4)GlcNAc(b1-3)Gal(b1-4)GlcNAc(b1-3)Gal(b1-4)GlcNAc(b1-3)Gal(b1-4)GlcNAc(b1-2)Man(a1-6)]Man(b1-4)GlcNAc(b1-4)GlcNAc", "outline": "as §1"}, "[19]": {"target": "Gal(b1-4)GlcNAc(b1-3)Gal(b1-4)GlcNAc(b1-3)Gal(b1-4)GlcNAc(b1-3)Gal(b1-4)GlcNAc(b1-3)Gal(b1-4)GlcNAc(b1-2)Man(a1-3)[Gal(b1-4)GlcNAc(b1-3)Gal(b1-4)GlcNAc(b1-3)Gal(b1-4)GlcNAc(b1-3)Gal(b1-4)GlcNAc(b1-3)Gal(b1-4)GlcNAc(b1-2)Man(a1-6)]Man(b1-4)GlcNAc(b1-4)[Fuc(a1-6)]GlcNAc", "outline": "as §1"}, "[20]": {"target": "Gal(b1-4)GlcNAc(b1-3)Gal(b1-4)GlcNAc(b1-3)Gal(b1-4)GlcNAc(b1-3)Gal(b1-4)GlcNAc(b1-3)Gal(b1-4)GlcNAc(b1-2)[Gal(b1-4)GlcNAc(b1-3)Gal(b1-4)GlcNAc(b1-3)Gal(b1-4)GlcNAc(b1-3)Gal(b1-4)GlcNAc(b1-3)Gal(b1-4)GlcNAc(b1-6)]Man(a1-6)[Gal(b1-4)GlcNAc(b1-3)Gal(b1-4)GlcNAc(b1-3)Gal(b1-4)GlcNAc(b1-3)Gal(b1-4)GlcNAc(b1-3)Gal(b1-4)GlcNAc(b1-2)Man(a1-3)]Man(b1-4)GlcNAc(b1-4)[Fuc(a1-6)]GlcNAc", "outline": "as §1"}, "[21]": {"target": "Gal(b1-4)GlcNAc(b1-3)Gal(b1-4)GlcNAc(b1-3)Gal(b1-4)GlcNAc(b1-3)Gal(b1-4)GlcNAc(b1-3)Gal(b1-4)GlcNAc(b1-3)Gal(b1-4)GlcNAc(b1-2)Man(a1-3)[Gal(b1-4)GlcNAc(b1-3)Gal(b1-4)GlcNAc(b1-3)Gal(b1-4)GlcNAc(b1-3)Gal(b1-4)GlcNAc(b1-3)Gal(b1-4)GlcNAc(b1-3)Gal(b1-4)GlcNAc(b1-2)Man(a1-6)]Man(b1-4)GlcNAc(b1-4)GlcNAc", "outline": "as §1"}, "[22]": {"target": "Gal(b1-4)GlcNAc(b1-3)Gal(b1-4)GlcNAc(b1-3)GalNAc", "outline": "as §1"}, "[23]": {"target": "Gal(b1-4)GlcNAc(b1-3)Gal(b1-4)GlcNAc(b1-3)[Gal(b1-4)GlcNAc(b1-3)Gal(b1-4)GlcNAc(b1-6)]GalNAc", "outline": "as §1"}}, "note": "Some of the results follow.", "data": [{"binder": "B1", "values": [{"measurement": "glycan array binding signal (z-score)", "setting": "[1]", "value": -0.056}, {"measurement": "glycan array binding signal (z-score)", "setting": "[2]", "value": -0.637}, {"measurement": "glycan array binding signal (z-score)", "setting": "[3]", "value": 0.46}, {"measurement": "glycan array binding signal (z-score)", "setting": "[4]", "value": -0.642}, {"measurement": "glycan array binding signal (z-score)", "setting": "[5]", "value": -0.441}, {"measurement": "glycan array binding signal (z-score)", "setting": "[6]", "value": -0.102}, {"measurement": "glycan array binding signal (z-score)", "setting": "[7]", "value": 0.892}, {"measurement": "glycan array binding signal (z-score)", "setting": "[8]", "value": -0.361}, {"measurement": "glycan array binding signal (z-score)", "setting": "[9]", "value": 1.47}, {"measurement": "glycan array binding signal (z-score)", "setting": "[10]", "value": 0.08}, {"measurement": "glycan array binding signal (z-score)", "setting": "[11]", "value": 0.01}, {"measurement": "glycan array binding signal (z-score)", "setting": "[12]", "value": 0.252}, {"measurement": "glycan array binding signal (z-score)", "setting": "[13]", "value": -0.225}, {"measurement": "glycan array binding signal (z-score)", "setting": "[14]", "value": 0.196}, {"measurement": "glycan array binding signal (z-score)", "setting": "[15]", "value": 0.286}, {"measurement": "glycan array binding signal (z-score)", "setting": "[16]", "value": -0.275}, {"measurement": "glycan array binding signal (z-score)", "setting": "[17]", "value": 0.22}, {"measurement": "glycan array binding signal (z-score)", "setting": "[18]", "value": -0.277}, {"measurement": "glycan array binding signal (z-score)", "setting": "[19]", "value": -0.211}, {"measurement": "glycan array binding signal (z-score)", "setting": "[20]", "value": 0.639}, {"measurement": "glycan array binding signal (z-score)", "setting": "[21]", "value": -0.219}, {"measurement": "glycan array binding signal (z-score)", "setting": "[22]", "value": 1.22}, {"measurement": "glycan array binding signal (z-score)", "setting": "[23]", "value": 1.78}]}]}
